# Percent effect of library compounds

From ChEMBL document CHEMBL3988442, “University of Dundee, Small-Polar-MMV Screening Library” (2021).

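Cell assay of Leishmania donovani living inside macrophages; the read-out is not stated. Concentration: 30 µM. Higher reads as stronger inhibition (inferred: compounds with an IC50 in retests scored well above the rest). About 69,000 compounds were tested under these conditions; 1.5% (about 1,000) showed 50% or more at least once.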

Values are the deposited “Percent Effect”, in %.
The controls that fix the scale are not given in the record; negative values are as filed.
Compounds were drawn at random from those tested, without regard to their results.
Two or more numbers in one place are separate tests of the same structure; such repeats can differ widely.

structure: Cc1ccc(CN(CCCn2ccnc2)Cc2c[nH]nc2C(C)(C)C)s1.O=C(O)CC(O)(CC(=O)O)C(=O)O
Percent Effect: 27.01 & 15.88

structure: CC(C)NC(=O)N1CC(=O)c2sc(Nc3ccc(C#N)cc3)nc2C1
Percent Effect: 27.26 & 22.33

structure: CCCc1cnc(C)nc1N1CCC(Cn2cc(C(C)O)nn2)CC1 (centres unmarked)
Percent Effect: 18.35

structure: CC(NC(=O)CSCC(N)=O)c1ccccc1Oc1ccccc1 (centres unmarked)
Percent Effect: -6.255

structure: CC(Cn1cncc1-c1cnn(Cc2ccccc2)c1)N1CCCCC1.Cl (centres unmarked)
Percent Effect: -70.75

structure: Cc1cccc(-c2ccc(C(=O)NCC(C)(C)C(N)=O)c(=O)[nH]2)c1
Percent Effect: 12.36

structure: O=S(=O)(c1ccc(C(F)(F)F)cc1)N1CCC(OCc2ccccn2)C1 (centres unmarked)
Percent Effect: -5.651

structure: CN(C)C(=O)Cc1ccc(NC(=O)NC2CC2)cc1
Percent Effect: -18.07

structure: CC(=O)c1ccc(-n2c(C)cn(CCC(=O)NC(N)=O)c2=O)cc1
Percent Effect: 8.428 & 31.99

structure: CCn1cc(S(=O)(=O)N2CCCCCC2c2cc(C)on2)cn1 (centres unmarked)
Percent Effect: 7.05

structure: Cc1ccc(CNS(=O)(=O)CCCC#N)cc1F
Percent Effect: -1.99

structure: CN(C)C(C)(C)CNC(=O)C(C)(C)c1ccccc1F
Percent Effect: 0.7805

structure: CCc1ncnc2c1CCN(c1ncc(F)cn1)CC2
Percent Effect: 12.99

structure: Cc1nc(CN2CCC(CNC(=O)C3(C#N)CCCC3)CC2)oc1C
Percent Effect: -9.879

structure: CCc1ccsc1C(=O)NCCn1nc2ccccn2c1=O
Percent Effect: 27.56

structure: CN(C)c1nc2c(c(N3CCC(O)CC3)n1)CN(CC1CCOC1)CC2 (centres unmarked)
Percent Effect: 16.12

structure: CC(C)(CNc1ccccc1S(=O)(=O)C(F)F)N1CCOCC1
Percent Effect: 23.66

structure: CC(C)c1nc(CN(C)C2CCN(Cc3nnc(C4CC4)o3)C2)no1 (centres unmarked)
Percent Effect: 6.076

structure: Cc1cccc(CN2CCC3(CCCN(CC(=O)N(C)C)C3)C2)n1.O=C(O)C(F)(F)F (centres unmarked)
Percent Effect: 18.12

structure: Cc1ccc(CN(C)C(=O)CN2CCOC(Cn3cccn3)C2)o1 (centres unmarked)
Percent Effect: 10.41

structure: COc1cc2nc3n(c(=O)c2cc1OC)CCN(C(=O)C1CC1)CC3
Percent Effect: 3.454 & -9.58

structure: Fc1ccc(CN2CCC3(CC2)CN(c2ccccn2)CCO3)cc1.O=C(O)C(F)(F)F.O=C(O)C(F)(F)F
Percent Effect: -11.7

structure: O=c1[nH]nc2nc(N3CCCC3)ccn12
Percent Effect: 24.73

structure: Clc1cc(CN2CCCC(Cn3cncn3)C2)c2ncccc2c1 (centres unmarked)
Percent Effect: -12.54

structure: N#Cc1cccc(CNCCNC(=O)Cc2cccc(F)c2)c1
Percent Effect: 8.399

structure: Cc1nn(C)c(N2CCOCC2)c1CNCc1ccc(CO)c(F)c1
Percent Effect: 16.34

structure: CCOC1CCN(CCc2nc(-c3cccc(Cl)c3)no2)CC1
Percent Effect: -52.4

structure: CC(C)CC(C#N)NC(=O)c1ccc(Oc2cccnc2)cc1 (centres unmarked)
Percent Effect: 27.45

structure: Cc1cc(C)nc(N2Cc3cnn(Cc4ccc(F)cc4)c3C2)n1
Percent Effect: 19.31

structure: Cc1csc(CNC(=O)NC2CCCc3c2cnn3CCO)n1 (centres unmarked)
Percent Effect: 19.07

structure: CC(NC1CCCC1)c1ccccc1-n1cccn1 (centres unmarked)
Percent Effect: -7.801

structure: CC(C)N1CCN(S(=O)(=O)c2ncn(C)c2Cl)CC1
Percent Effect: 48.03

structure: O=C(O)c1cc(S(=O)(=O)Nc2cc(F)ccc2F)cc2c1OCCO2
Percent Effect: 13.42

structure: CCc1cnc(C)nc1N1CCN(C(N)=O)CC1
Percent Effect: 25.01

structure: O=C(NCCc1ccsc1)Nc1cccnc1N1CCCC1
Percent Effect: -5.752

structure: CN(C)C(=O)CCS(=O)(=O)Cc1cc(Cl)c2c(c1)OCCO2
Percent Effect: 4.594

structure: CC(=O)N1CCCC(Cc2cncc(Br)c2)C1 (centres unmarked)
Percent Effect: 11.44 & 20.85

structure: Cc1oc(-c2ccco2)nc1CC(=O)N1CCC(C(O)C(F)(F)F)CC1 (centres unmarked)
Percent Effect: 10.64

structure: COc1c(CNCCNC(=O)c2ccc(C)cc2)c(C(C)C)nn1C
Percent Effect: 3.683

structure: CN(CC(N)=O)C(=O)CCCn1ccc2cc(Cl)ccc21
Percent Effect: -16.03

structure: O=C(c1cc(F)cc2[nH]cnc12)N1CCCCC1Cn1cccn1 (centres unmarked)
Percent Effect: 10.92

structure: CCOCc1ccc(NC(=O)C(C)C)cc1
Percent Effect: 12.83

Repeated from the top, 4 entries:

{"structure": "Cc1ccc(CN(CCCn2ccnc2)Cc2c[nH]nc2C(C)(C)C)s1.O=C(O)CC(O)(CC(=O)O)C(=O)O", "Percent Effect": "27.01 & 15.88"}
{"structure": "CC(C)NC(=O)N1CC(=O)c2sc(Nc3ccc(C#N)cc3)nc2C1", "Percent Effect": "27.26 & 22.33"}
{"structure": "CCCc1cnc(C)nc1N1CCC(Cn2cc(C(C)O)nn2)CC1", "stereo": "centres unmarked", "Percent Effect": 18.35}
{"structure": "CC(NC(=O)CSCC(N)=O)c1ccccc1Oc1ccccc1", "stereo": "centres unmarked", "Percent Effect": -6.255}